Screen size: about 390,000 compounds; about 4,000 (1%) were called active. Inconclusive results, whose numbers are uncertain, are shown with a selection of clear calls. The call rests on the fitted dose curve; in most records, active means well fitted inhibition curve with a large enough effect; inconclusive means small, poorly fitted or top-dose-only effect, or another doubt; inactive means no such curve, though single readings can be large or run the other way. Potencies of inconclusive entries are doubtful fits and often do not repeat.
The compounds below were run against DNA polymerase iota (Homo sapiens) (UniProt Q9UNA4) (assay: qHTS for Inhibitors of Polymerase Iota). Details: Pol iota fluorescent replication assay, 10 min; series mostly up to 115 µM.
Method in brief: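 Fluorescent replication assay read twice, at 0 min and 10 min after adding 50 nM (final) substrate. Enzyme (10 nM) and compounds were first incubated 15 min at room temperature; enzyme-free buffer wells were negative controls.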
Potency means the concentration at half of the fitted maximal effect.

The chains behind the UniProt entries cited, without tags or fusion partners. Where a name states a change or a piece, a line headed by the entry shows the natural chain unless it says otherwise.
UniProt Q9UNA4: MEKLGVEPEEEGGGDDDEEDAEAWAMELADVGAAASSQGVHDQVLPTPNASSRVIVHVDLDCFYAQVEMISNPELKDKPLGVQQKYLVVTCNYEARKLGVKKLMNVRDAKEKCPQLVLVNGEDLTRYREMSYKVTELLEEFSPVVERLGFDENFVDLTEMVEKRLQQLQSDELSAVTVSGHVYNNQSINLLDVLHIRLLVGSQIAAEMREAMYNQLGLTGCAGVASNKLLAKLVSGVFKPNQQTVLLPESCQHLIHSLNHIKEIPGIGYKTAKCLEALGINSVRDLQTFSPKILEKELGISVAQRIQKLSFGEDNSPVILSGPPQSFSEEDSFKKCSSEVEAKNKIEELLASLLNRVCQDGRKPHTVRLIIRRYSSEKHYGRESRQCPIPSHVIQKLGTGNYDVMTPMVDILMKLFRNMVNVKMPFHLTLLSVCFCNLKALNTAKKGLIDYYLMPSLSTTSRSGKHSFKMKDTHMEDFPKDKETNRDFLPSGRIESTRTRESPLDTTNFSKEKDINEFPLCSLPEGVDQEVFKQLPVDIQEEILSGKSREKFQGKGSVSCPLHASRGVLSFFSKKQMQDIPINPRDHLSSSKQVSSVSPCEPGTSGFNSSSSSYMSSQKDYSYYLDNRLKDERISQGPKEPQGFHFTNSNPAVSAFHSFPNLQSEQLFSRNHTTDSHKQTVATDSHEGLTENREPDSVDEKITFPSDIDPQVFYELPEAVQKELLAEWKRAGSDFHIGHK

Row | SMILES | Potency
1 | CC1=Nn2c(nnc2-c2ccccn2)SC1 | inactive
2 | CCNC(=O)CN(CCc1ccccc1)S(C)(=O)=O | inactive
3 | Cc1cc(C)cc(N(CC(=O)NC2CC3CCC2C3)S(C)(=O)=O)c1 (stereo unspecified) | active: 89.1 µM
4 | Cc1ccc(-n2c3nc(=O)[nH]c(=O)c-3cc3c(C)nn(-c4ccccc4)c32)cc1C | inactive
5 | Cc1c(C(=O)OC(C)C)sc(NC(=O)C2c3ccccc3Oc3ccccc32)c1C(=O)OC(C)C | active: 89.1 µM
6 | CCOC(=O)c1cccc(NS(=O)(=O)c2cc(-c3cnc(C4CC4)o3)ccc2C)c1 | inactive
7 | O=C(NCc1ccccc1)c1cccc(Br)n1 | active: 79.4 µM
8 | O=C1NN(c2ccc(F)cc2)C(=O)/C1=C\C=C\c1ccco1 | inconclusive: 15.8 µM [inhibitor, full curve, poor fit]
9 | C/C(=C\C(=O)c1ccccc1)Nc1cccc(O)c1 | inconclusive: 70.8 µM [inhibitor, partial curve]
11 | CC(CNC(=O)CCc1cn(Cc2ccccc2Cl)c2ccccc12)c1ccccc1 (stereo unspecified) | inactive
12 | COc1ccc(NC(=O)COC(=O)c2c3c(nc4ccccc24)CCCC3)cc1Cl | inconclusive: 10 µM [inhibitor, partial curve, poor fit]
13 | CCCCOc1cccc(C(=O)N(Cc2ccc(N(C)C)cc2)C2CCS(=O)(=O)C2)c1 (stereo unspecified) | inactive
14 | Nc1c2c(=O)[nH]c(O)cc2nn1-c1ccccc1 | active: 8.91 µM
15 | O=S(=O)(Nc1cccnc1)c1cccc2ccccc12 | inactive
16 | COc1ccc(C)cc1Nc1n[n+](-c2ccccc2)c(-c2ccc(N(C)C)cc2)s1 | inconclusive: 56.2 µM [inhibitor, partial curve, poor fit]
17 | O=C(O)c1cc(N=Nc2c(O)[nH]c3ccc([N+](=O)[O-])cc23)ccc1Cl | inconclusive: 31.6 µM [inhibitor, single point]
18 | O=C(CSc1c2c(nc3ccccc13)CCC2)Nc1ccc(F)cc1 | inconclusive: 70.8 µM [inhibitor, partial curve, poor fit]
19 | COc1ccc(-c2cn3cccnc3n2)cc1NC(=O)c1ccc(Br)o1 | inconclusive: 39.8 µM [inhibitor, partial curve, poor fit]
20 | COCCCNC(=O)CCCn1c(SCC(=O)c2ccc(F)cc2)nc2c(sc3ccccc32)c1=O | inactive
21 | CC1C(=O)N2CCCc3cc(S(=O)(=O)NCc4ccccc4Cl)cc1c32 (stereo unspecified) | inactive
22 | Brc1cccc[n+]1Cc1cccc(C[n+]2ccccc2Br)c1 | inconclusive: 79.4 µM [inhibitor, single point]

Row | SMILES | Potency
23 | Cc1cnc2c3c(cc(Cl)c2c1)-c1ccccc1S(=O)(=O)N3 | active: 28.2 µM
24 | CCc1ccc(-c2cc(C)no2)cc1S(=O)(=O)N1CCOc2ccc(C)cc21 | inconclusive: 79.4 µM [inhibitor, partial curve, poor fit]
25 | C(=Nc1cnc2ccccc2c1)c1ccncc1 | inactive
26 | COC(=O)c1ccccc1NC(=O)c1cnc(Nc2ccc(OC)cc2)c2ccccc12 | inactive
27 | COc1ccccc1-n1c(SCC(=O)N2CCCC2)nnc1-c1ccccc1 | inconclusive: 89.1 µM [inhibitor, single point]
28 | Cc1cc(C(=O)Nc2cccnc2)no1 | inconclusive: 89.1 µM [inhibitor, partial curve, poor fit]
29 | CCN(CC)C(c1ccc(C)cc1)c1nnnn1C1CCCCC1 (stereo unspecified) | inconclusive: 14.1 µM [inhibitor, partial curve]
30 | O=S(=O)(c1ccccc1)N(CC(F)(F)F)c1ccc(C(O)(C(F)(F)F)C(F)(F)F)cc1 | inconclusive: 79.4 µM [inhibitor, partial curve, poor fit]
31 | Cc1nn2c(=O)cc(COC(=O)c3ccccc3NC(=O)C(C)Oc3ccccc3)nc2s1 (stereo unspecified) | inactive
32 | COc1ccc(C(C)C)cc1S(=O)(=O)Nc1ccccn1 | inconclusive: 89.1 µM [inhibitor, partial curve, poor fit]
33 | N#Cc1cccc(N=Cc2c(O)ccc3ccccc23)c1 | inconclusive: 22.4 µM [inhibitor, full curve, poor fit]
34 | Cc1ccc(-c2cn(-c3cccc(Cl)c3)c(S(=O)(=O)CC(=O)Nc3ccccc3F)n2)cc1 | inconclusive: 35.5 µM [inhibitor, partial curve]
35 | Cc1ccc(NC(=O)Cn2c(=O)n(Cc3ccco3)c(=O)c3ccccc32)c(C)c1 | inconclusive: 70.8 µM [inhibitor, partial curve]
36 | O=C(O)C1CC(=O)N(c2ccc3c(c2)OCCO3)C1 (stereo unspecified) | inconclusive: 39.8 µM [inhibitor, single point]
37 | Cc1onc(-c2ccccc2)c1C(=O)NC1CCC(C)CC1 (stereo unspecified) | inactive
38 | Nc1cc(=O)nc(SCc2ccccc2)n1Cc1ccco1 | inconclusive: 50.1 µM [inhibitor, partial curve, poor fit]
39 | CCOC(=O)/C=C/C(=O)N1CCc2ccccc21 | inconclusive: 20 µM [inhibitor, partial curve, poor fit]
40 | CCOP(=O)(OCC)/C(C#N)=C(\O)c1ccc(OC)cc1 | inconclusive: 35.5 µM [inhibitor, full curve, poor fit]
41 | CS/C(=C\[N+](=O)[O-])Nc1ccccc1 | inconclusive: 17.8 µM [inhibitor, partial curve, poor fit]
42 | CC(=O)c1c(C)oc2ccc(N(C(C)=O)S(=O)(=O)c3ccc(Br)cc3)cc12 | inconclusive: 22.4 µM [inhibitor, partial curve, poor fit]
43 | COc1cc2[nH]c(Cl)c([N+](=O)[O-])c2cc1OC | inconclusive: 22.4 µM [inhibitor, partial curve]
44 | COC(=O)c1c(C)[nH]c(C(=O)C(C)OC(=O)C2CC(=O)N(CCc3ccccc3)C2)c1C (stereo unspecified) | inactive

Molecules from the list above that have a nitro group on carbon, in the order listed:
Row | SMILES | Potency
17 | O=C(O)c1cc(N=Nc2c(O)[nH]c3ccc([N+](=O)[O-])cc23)ccc1Cl | inconclusive: 31.6 µM [inhibitor, single point]
41 | CS/C(=C\[N+](=O)[O-])Nc1ccccc1 | inconclusive: 17.8 µM [inhibitor, partial curve, poor fit]
43 | COc1cc2[nH]c(Cl)c([N+](=O)[O-])c2cc1OC | inconclusive: 22.4 µM [inhibitor, partial curve]

(continued)

Row | SMILES | Potency
45 | COc1ccc(C2C(C(=O)OCC3CCCO3)=C(C)NC3=C2C(=O)CC(c2ccco2)C3)cc1O (stereo unspecified) | inconclusive: 56.2 µM [inhibitor, partial curve, poor fit]
46 | CC1=C(C)CS(=O)N(S(=O)(=O)c2ccccc2)C1 (stereo unspecified) | inconclusive: 12.6 µM [inhibitor, partial curve, poor fit]
47 | COc1ccc(N2C(=O)CC(N(CCc3ccc(S(N)(=O)=O)cc3)C(=S)Nc3ccccc3)C2=O)cc1 (stereo unspecified) | inconclusive: 28.2 µM [inhibitor, single point]
48 | Cc1ccccc1OCCCCc1c(C)n[nH]c1C | inconclusive: 25.1 µM [inhibitor, partial curve, poor fit]
49 | CC(C)C(c1nnnn1C1CCCCC1)N1CCCc2ccccc21 (stereo unspecified) | inconclusive: 39.8 µM [inhibitor, single point]
50 | COc1ccc(C2=C(C)C(N3CCC(C(=O)Nc4ccc(F)cc4C)CC3)=NS2(=O)=O)cc1 | inconclusive: 89.1 µM [inhibitor, single point]
51 | COc1ccccc1OCC(=O)NNC(=O)c1cnccn1 | inconclusive: 3.16 µM [inhibitor, partial curve, poor fit]
52 | CC(=O)c1ccc(S(=O)(=O)NCC(=O)Nc2nc3ccccc3[nH]2)cc1 | inconclusive: 3.98 µM [inhibitor, partial curve, poor fit]
53 | C=CCn1c(SCC(=O)NCc2ccco2)nnc1-c1cccc(N(C)C)c1 | inactive
54 | Nc1cc(C(=O)OCC(=O)NCc2ccco2)ccc1Cl | inconclusive: 7.08 µM [inhibitor, partial curve, poor fit]
55 | O=C(NCc1n[nH]c(=S)n1Cc1ccccc1)c1ccccc1 | inconclusive: 56.2 µM [inhibitor, partial curve, poor fit]
56 | O=C(Cc1ccc(S(=O)(=O)N2CCOCC2)s1)Nc1ccccc1Br | inconclusive: 56.2 µM [inhibitor, partial curve, poor fit]
57 | CN(C)c1ccc(C2C=C(c3ccc(Cl)cc3OC(F)F)Nc3ncnn32)cc1 (stereo unspecified) | inconclusive: 12.6 µM [inhibitor, partial curve, poor fit]
58 | COc1ccccc1-c1cc(C(=O)Nc2cc(C)nn2-c2ccccc2)no1 | inconclusive: 25.1 µM [inhibitor, single point]
59 | CCOC(=O)C1=C(C)NC(=O)NC1C1CC=CCC1 (stereo unspecified) | inconclusive: 100 µM [inhibitor, single point]
60 | CC(C)C1CC(CCN2CCCCC2)(c2ccccc2)CCO1 (stereo unspecified) | inconclusive: 8.91 µM [inhibitor, full curve]
61 | CCCSc1ccc([C@@H]2[C@H]3C(=O)N(CC)C(=O)[C@H]3[C@]3(C(=O)OC)CCCCN23)cc1 | inconclusive: 17.8 µM [inhibitor, full curve, poor fit]
62 | Cc1ccc(C(=O)Oc2coc(CSc3nnc(NC(=O)c4cccs4)s3)cc2=O)cc1C | inconclusive: 100 µM [inhibitor, partial curve, poor fit]
63 | CCC(C)Sc1ccc(-c2nc3ccc(C)cn3c2NCc2ccccc2)cc1OC (stereo unspecified) | inconclusive: 14.1 µM [inhibitor, partial curve, poor fit]
64 | CCC(C)OC(=O)C(C)Oc1ccc(-c2ccccc2)cc1 (stereo unspecified) | inconclusive: 70.8 µM [inhibitor, single point]
65 | CCc1ccccc1NC(=O)c1ccc2nc(C(C)C)oc2c1 | inactive
66 | COc1ccc(Nc2oc(-c3ccccc3Cl)nc2C#N)cc1 | inconclusive: 56.2 µM [inhibitor, partial curve, poor fit]

From PubChem BioAssay AID588590 (National Center for Advancing Translational Sciences (NCATS), 2011)
